Data as given in PubChem BioAssay AID743454 (Peter MacCallum Cancer Centre, 2014)
Shown is an unselected part of about 18,000 deposited reagents. 450 of them (2.5%) count as active. 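Single biological run; no consistent viability z cut-off exists, so the class columns, not z-scores, define the calls.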 A number with no mark means an inactive call. Reagent sequences are not shown.

- Purpose: 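Knock-downs lowering viability or raising caspase 3/7 activity in vorinostat-treated resistant cells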 (primary screen)
- System: human HCT116-VR colon cancer cells, selected for vorinostat resistance
- Reagents: siRNA pool against human genes, 40 nM siRNA pool
- Timing: vorinostat for 24 h, read-out about 72 h after transfection
- Challenge: vorinostat at 2.5 µM final
- Measurement: 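Two measures, CellTiter-Fluor viability and luminescent caspase 3/7 activity, each as fold change against same-plate mock wells, mean of duplicates, then screen-wide robust z-score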
- Direction: viability robust z-score: higher = more viable cells than screen typical; caspase robust z-score: higher = more caspase 3/7 activity than screen typical
- Hit rule: 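Hits are knock-downs in viability class RV1/RV2 or caspase class CA1/CA2, excluding ones that killed cells in the no-drug cell-count arm; hits then retested with single siRNAs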

{"gene symbol": "TMEM225", "viability hit class": "no change", "caspase hit class": "no change", "viability robust z-score": 0.64, "caspase robust z-score": 0.19}
{"gene symbol": "PSTPIP2", "viability hit class": "no change", "caspase hit class": "no change", "viability robust z-score": 0.76, "caspase robust z-score": 0.92}
{"gene symbol": "TUBB1", "viability hit class": "no change", "caspase hit class": "no change", "viability robust z-score": -0.25, "caspase robust z-score": -0.78}
{"gene symbol": "ATP8B3", "viability hit class": "no change", "caspase hit class": "no change", "viability robust z-score": -0.66, "caspase robust z-score": 1.34}
{"gene symbol": "MSANTD4", "viability hit class": "no change", "caspase hit class": "no change", "viability robust z-score": -0.43, "caspase robust z-score": -0.62}
{"gene symbol": "IL17D", "viability hit class": "no change", "caspase hit class": "no change", "viability robust z-score": 1.28, "caspase robust z-score": 0.16}
{"gene symbol": "FAM219A", "viability hit class": "no change", "caspase hit class": "no change", "viability robust z-score": 1.17, "caspase robust z-score": -1.21}
{"gene symbol": "FDFT1", "viability hit class": "no change", "caspase hit class": "no change", "viability robust z-score": -1.42, "caspase robust z-score": -0.43}
{"gene symbol": "HS3ST1", "viability hit class": "no change", "caspase hit class": "no change", "viability robust z-score": 1.7, "caspase robust z-score": -0.95}
{"gene symbol": "EFR3A", "viability hit class": "no change", "caspase hit class": "no change", "viability robust z-score": -0.83, "caspase robust z-score": -0.86}
{"gene symbol": "FAM20B", "viability hit class": "no change", "caspase hit class": "no change", "viability robust z-score": 0.92, "caspase robust z-score": -1.16}
{"gene symbol": "ADIPOR2", "viability hit class": "no change", "caspase hit class": "no change", "viability robust z-score": 0.25, "caspase robust z-score": 0.81}
